These are yes or no findings as the source states them, for the method shown. Binding seen in cells or lysates may run through a third protein. These calls come from enrichment with a bait or labelling near it, and not all partners need be listed. No binding means not detected with the bait.
B1: C17ORF96 homologue protein (endogenous) (protein, UniProt Q7TNS8 1-369)
chain: METLCPPPRLAVPASPRGSPCSPTPLKPRRGTPEFSPLCLRALAFCALAKPRPSSLGLGPGELAPRTPVLLGPPASPCTGGWAADGLKHLGGQAGRPSDVSSPAREDADVAVCPGGGEEEEGGGGFPHFGAGSCAPPGRCPAPLRPQDSPTNPAWSPPRPARGLDAASSPPLEPGSPPPSPPAGLSPEPAPSEQPVPASEAPGGGDPAPTAPEAPALSPSTADAAPDPPRDLRQEHFNRLIRRSKLWCYAKGFALDTPSLRRGPERPAAKARGAAKKRRRPAPPPPSVQPRRPVPTLPTSSTFSLLDCFPCPPALVVEENGDLGPASSLRLQGDAKPPPAHPLWKWQMGGPAVPEPPGLKSWWVNLEEL

Protein sequences, listed by entry. Tags and fused reporters are not part of them. Lines headed by an entry give the natural chain unless they say otherwise; changes in a name come on top.
UniProt Q9Z248: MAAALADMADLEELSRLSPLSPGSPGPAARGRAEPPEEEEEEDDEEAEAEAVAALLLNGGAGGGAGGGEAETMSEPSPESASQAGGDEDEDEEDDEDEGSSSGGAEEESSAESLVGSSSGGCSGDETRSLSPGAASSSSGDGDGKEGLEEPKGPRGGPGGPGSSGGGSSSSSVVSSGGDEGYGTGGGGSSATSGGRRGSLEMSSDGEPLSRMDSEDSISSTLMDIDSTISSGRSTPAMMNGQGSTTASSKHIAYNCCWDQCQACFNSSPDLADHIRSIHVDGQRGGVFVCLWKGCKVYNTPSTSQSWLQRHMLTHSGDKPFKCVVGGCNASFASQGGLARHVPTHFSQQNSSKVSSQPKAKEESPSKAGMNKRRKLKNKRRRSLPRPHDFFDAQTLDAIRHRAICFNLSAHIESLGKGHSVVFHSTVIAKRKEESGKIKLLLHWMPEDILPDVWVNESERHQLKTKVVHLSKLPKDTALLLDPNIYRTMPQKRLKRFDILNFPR
UniProt Q9Z1B8: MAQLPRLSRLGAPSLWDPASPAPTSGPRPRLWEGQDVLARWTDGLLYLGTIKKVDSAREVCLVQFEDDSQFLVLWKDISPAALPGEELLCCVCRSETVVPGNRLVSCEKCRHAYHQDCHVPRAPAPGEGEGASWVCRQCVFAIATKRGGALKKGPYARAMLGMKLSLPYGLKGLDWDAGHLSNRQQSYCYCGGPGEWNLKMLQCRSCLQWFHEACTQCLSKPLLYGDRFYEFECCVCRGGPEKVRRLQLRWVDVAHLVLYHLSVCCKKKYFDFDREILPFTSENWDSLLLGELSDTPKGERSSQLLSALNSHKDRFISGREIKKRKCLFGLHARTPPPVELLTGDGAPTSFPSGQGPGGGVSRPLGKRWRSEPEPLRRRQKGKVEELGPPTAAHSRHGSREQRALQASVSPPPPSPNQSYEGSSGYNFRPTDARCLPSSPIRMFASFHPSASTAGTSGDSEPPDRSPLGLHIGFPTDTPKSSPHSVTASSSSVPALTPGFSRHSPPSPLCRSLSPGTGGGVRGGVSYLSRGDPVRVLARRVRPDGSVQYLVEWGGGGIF
UniProt Q02395: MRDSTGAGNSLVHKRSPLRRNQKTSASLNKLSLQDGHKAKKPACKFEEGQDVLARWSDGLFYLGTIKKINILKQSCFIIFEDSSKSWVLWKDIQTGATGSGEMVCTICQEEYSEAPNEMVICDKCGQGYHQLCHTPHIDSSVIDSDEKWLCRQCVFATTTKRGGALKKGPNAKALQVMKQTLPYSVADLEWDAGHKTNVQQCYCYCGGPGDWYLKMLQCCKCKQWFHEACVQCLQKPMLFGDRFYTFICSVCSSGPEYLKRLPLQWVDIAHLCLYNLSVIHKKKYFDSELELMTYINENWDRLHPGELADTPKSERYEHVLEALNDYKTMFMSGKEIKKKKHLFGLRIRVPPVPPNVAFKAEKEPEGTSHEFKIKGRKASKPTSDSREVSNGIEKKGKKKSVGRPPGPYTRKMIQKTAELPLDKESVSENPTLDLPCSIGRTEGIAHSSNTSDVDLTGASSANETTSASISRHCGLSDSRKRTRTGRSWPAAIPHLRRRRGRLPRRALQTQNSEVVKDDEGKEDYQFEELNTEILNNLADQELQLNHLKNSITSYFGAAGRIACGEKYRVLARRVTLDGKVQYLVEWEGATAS

Molecular target: Flag-2xStrepII-tagged (FS2) AEBP2 (mouse) (UniProt Q9Z248)
Test: affinity purification with mass spectrometry; FS2-AEBP2 complexes immunoprecipitated from nuclear cell extract of E14 mESCs in the presence of benzonase; LC-MS/MS; two independent immunoprecipitation experiments

binding, no binding:
PCL1 (PHF1), endogenous (from UniProt Q9Z1B8 1-559)
PCL2 (MTF2), endogenous (from UniProt Q02395 1-593)
B1
